Values from PubChem BioAssay AID652243 (Drosophila RNAi Screening Center, 2013).

- Test: 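Knock-downs that decrease or increase androgen receptor reporter signal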 (primary screen)
- Cells: Drosophila S2R+ cells
- Reagents: long dsRNA against Drosophila genes
- Time to read-out: 72 h (48 h, then 24 h hormone)
- Treatment: synthetic androgen R1881 at 10 nM for 24 h
- Detection: 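Firefly light from an androgen-responsive reporter and Renilla control light per well, raw and unnormalised, for each of two replicates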
- Scale: firefly reporter light: higher = more light from androgen-responsive reporter; Renilla control light: higher = more constitutive control signal (cell number, transfection)
- Rule for the call: 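Hit when the log firefly-to-Renilla ratio dropped or increased by a fixed fold versus the mean of GFP or LacZ controls across duplicate plates; lowering cut given as 1.5 and as 3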
- Meaning of the calls: active = hit: reporter lowered or raised; inactive = no hit
The deposit covers about 24,000 reagents; shown is a random part of those that have a named target and a result. Over the whole deposit, 246 (1%) were called active. 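Plates not normalised; calls are printed but the firefly/Renilla ratio behind them is not deposited; fold cut for lowering reported inconsistently.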 Raw values vary from plate to plate and are shown uncorrected. Unmarked entries are inactive. Reagents against one gene are numbered here. Names joined by + are all predicted targets of the reagent. The record does not give: the amount of reagent.

What is on record for CG13223?
firefly reporter light, replicate 1: 3.04e5; firefly reporter light, replicate 2: 2.38e5; Renilla control light, replicate 1: 1.58e6; Renilla control light, replicate 2: 1.69e6

For Hacl, how do the results read?
firefly reporter light, replicate 1: 9.36e5; firefly reporter light, replicate 2: 5.09e5; Renilla control light, replicate 1: 1.21e6; Renilla control light, replicate 2: 8.55e5

What did the screen give for vsg #1?
firefly reporter light, replicate 1: 2.47e5; firefly reporter light, replicate 2: 1.56e5; Renilla control light, replicate 1: 2.90e6; Renilla control light, replicate 2: 2.01e6

For vsg #2, how do the results read?
firefly reporter light, replicate 1: 3.35e5; firefly reporter light, replicate 2: 3.09e5; Renilla control light, replicate 1: 9.94e5; Renilla control light, replicate 2: 5.56e5

What is on record for CG33235?
firefly reporter light, replicate 1: 5.49e5; firefly reporter light, replicate 2: 6.18e5; Renilla control light, replicate 1: 4.65e6; Renilla control light, replicate 2: 4.26e6

What is on record for CCAP-R #1?
firefly reporter light, replicate 1: 1.74e5; firefly reporter light, replicate 2: 1.98e5; Renilla control light, replicate 1: 2.27e6; Renilla control light, replicate 2: 2.55e6

What is on record for CCAP-R #2?
firefly reporter light, replicate 1: 1.19e5; firefly reporter light, replicate 2: 2.09e5; Renilla control light, replicate 1: 1.73e6; Renilla control light, replicate 2: 2.13e6

For CCAP-R #3, what does the deposit list?
firefly reporter light, replicate 1: 1.08e6; firefly reporter light, replicate 2: 8.60e5; Renilla control light, replicate 1: 1.38e6; Renilla control light, replicate 2: 1.38e6

With Golgin97, what does the deposit list?
firefly reporter light, replicate 1: 1.12e6; firefly reporter light, replicate 2: 1.09e6; Renilla control light, replicate 1: 2.28e6; Renilla control light, replicate 2: 2.52e6

How did the screen score Odc1 #1?
firefly reporter light, replicate 1: 1.12e6; firefly reporter light, replicate 2: 2.96e5; Renilla control light, replicate 1: 1.83e6; Renilla control light, replicate 2: 8.32e5

With Odc1 #2, what does the deposit list?
firefly reporter light, replicate 1: 2.53e5; firefly reporter light, replicate 2: 4.26e5; Renilla control light, replicate 1: 7.78e5; Renilla control light, replicate 2: 7.78e5

How did the screen score Ns4 #1?
firefly reporter light, replicate 1: 8.25e5; firefly reporter light, replicate 2: 1.29e6; Renilla control light, replicate 1: 2.27e6; Renilla control light, replicate 2: 3.19e6

What did the screen give for Ns4 #2?
firefly reporter light, replicate 1: 3.03e5; firefly reporter light, replicate 2: 2.63e5; Renilla control light, replicate 1: 6.08e5; Renilla control light, replicate 2: 5.21e5

A few values from the entries so far:
Value of Ns4 #1 under “Renilla control light, replicate 1”: 2.27e6
For “Renilla control light, replicate 2”, Ns4 #2 is entered as 5.21e5

Additional records follow:
What did the screen give for Spn77Bb + Spn77Bc #1?
firefly reporter light, replicate 1: 2.32e5; firefly reporter light, replicate 2: 2.05e5; Renilla control light, replicate 1: 2.43e6; Renilla control light, replicate 2: 1.67e6

How did the screen score Spn77Bb + Spn77Bc #2?
firefly reporter light, replicate 1: 2.62e5; firefly reporter light, replicate 2: 2.35e5; Renilla control light, replicate 1: 2.74e6; Renilla control light, replicate 2: 2.68e6

For CG11379, what was measured?
firefly reporter light, replicate 1: 1.11e5; firefly reporter light, replicate 2: 1.11e5; Renilla control light, replicate 1: 2.85e6; Renilla control light, replicate 2: 2.34e6

What is on record for CG31189?
firefly reporter light, replicate 1: 1.91e5; firefly reporter light, replicate 2: 1.86e5; Renilla control light, replicate 1: 2.20e6; Renilla control light, replicate 2: 2.61e6

Which result is listed for CG9458?
firefly reporter light, replicate 1: 1.33e5; firefly reporter light, replicate 2: 1.17e5; Renilla control light, replicate 1: 1.83e6; Renilla control light, replicate 2: 2.02e6

For CG32679, what does the deposit list?
firefly reporter light, replicate 1: 7.05e5; firefly reporter light, replicate 2: 7.93e5; Renilla control light, replicate 1: 1.70e6; Renilla control light, replicate 2: 1.59e6

With CG17005, what does the deposit list?
firefly reporter light, replicate 1: 1.64e5; firefly reporter light, replicate 2: 2.35e5; Renilla control light, replicate 1: 8.56e5; Renilla control light, replicate 2: 1.30e6

With Calr #1, what was measured?
firefly reporter light, replicate 1: 1.60e5; firefly reporter light, replicate 2: 1.14e5; Renilla control light, replicate 1: 2.71e6; Renilla control light, replicate 2: 2.54e6

For Calr #2, what was measured?
firefly reporter light, replicate 1: 4.07e5; firefly reporter light, replicate 2: 2.34e5; Renilla control light, replicate 1: 1.00e6; Renilla control light, replicate 2: 7.27e5
